Paper PMC6629185
Results are given in words; binding and its absence hold for the method and conditions named. Binding seen in cells or lysates may run through a third protein. Some results given as binding are weak or reduced against the parent protein; the word gives no strength.

Amino acid sequences for entries named in this document (tags omitted).
UniProt Q92769: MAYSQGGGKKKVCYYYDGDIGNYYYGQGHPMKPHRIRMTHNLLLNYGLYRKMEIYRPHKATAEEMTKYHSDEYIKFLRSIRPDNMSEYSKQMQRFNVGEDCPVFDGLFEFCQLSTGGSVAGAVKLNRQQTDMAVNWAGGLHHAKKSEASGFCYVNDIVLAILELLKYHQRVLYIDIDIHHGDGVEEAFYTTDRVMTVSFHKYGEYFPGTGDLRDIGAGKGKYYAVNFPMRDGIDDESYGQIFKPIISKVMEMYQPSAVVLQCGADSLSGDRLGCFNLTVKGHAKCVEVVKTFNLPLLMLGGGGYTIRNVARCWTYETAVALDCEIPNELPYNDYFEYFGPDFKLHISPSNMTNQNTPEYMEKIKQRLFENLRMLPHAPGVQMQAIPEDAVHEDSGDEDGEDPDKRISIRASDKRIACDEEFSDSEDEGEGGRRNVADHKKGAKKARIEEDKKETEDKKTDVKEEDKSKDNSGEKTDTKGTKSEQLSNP
UniProt O15379: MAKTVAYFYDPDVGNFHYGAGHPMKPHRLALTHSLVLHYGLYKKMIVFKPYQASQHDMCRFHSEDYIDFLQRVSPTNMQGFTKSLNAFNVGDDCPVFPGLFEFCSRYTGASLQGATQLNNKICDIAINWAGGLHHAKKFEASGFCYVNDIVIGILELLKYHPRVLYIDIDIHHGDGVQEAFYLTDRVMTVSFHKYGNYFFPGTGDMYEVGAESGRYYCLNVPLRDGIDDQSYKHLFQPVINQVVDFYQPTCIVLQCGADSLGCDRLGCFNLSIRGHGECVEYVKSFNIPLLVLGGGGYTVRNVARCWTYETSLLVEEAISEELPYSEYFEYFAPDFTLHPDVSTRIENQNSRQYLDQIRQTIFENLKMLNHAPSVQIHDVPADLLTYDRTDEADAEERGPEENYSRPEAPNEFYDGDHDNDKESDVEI
UniProt Q13547: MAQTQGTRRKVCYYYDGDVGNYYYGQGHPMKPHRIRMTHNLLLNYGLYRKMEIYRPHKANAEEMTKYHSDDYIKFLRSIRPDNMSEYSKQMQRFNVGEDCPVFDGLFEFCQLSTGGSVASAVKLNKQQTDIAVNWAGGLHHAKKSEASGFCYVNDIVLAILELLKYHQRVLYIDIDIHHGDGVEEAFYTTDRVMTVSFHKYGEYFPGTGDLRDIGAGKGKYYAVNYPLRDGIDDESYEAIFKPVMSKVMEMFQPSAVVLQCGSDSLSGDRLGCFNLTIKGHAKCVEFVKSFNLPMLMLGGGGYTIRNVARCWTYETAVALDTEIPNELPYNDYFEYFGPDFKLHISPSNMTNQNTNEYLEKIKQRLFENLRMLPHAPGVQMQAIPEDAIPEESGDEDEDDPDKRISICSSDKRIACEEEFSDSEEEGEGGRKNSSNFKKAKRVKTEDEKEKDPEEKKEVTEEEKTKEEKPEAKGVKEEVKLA
UniProt Q96KQ7: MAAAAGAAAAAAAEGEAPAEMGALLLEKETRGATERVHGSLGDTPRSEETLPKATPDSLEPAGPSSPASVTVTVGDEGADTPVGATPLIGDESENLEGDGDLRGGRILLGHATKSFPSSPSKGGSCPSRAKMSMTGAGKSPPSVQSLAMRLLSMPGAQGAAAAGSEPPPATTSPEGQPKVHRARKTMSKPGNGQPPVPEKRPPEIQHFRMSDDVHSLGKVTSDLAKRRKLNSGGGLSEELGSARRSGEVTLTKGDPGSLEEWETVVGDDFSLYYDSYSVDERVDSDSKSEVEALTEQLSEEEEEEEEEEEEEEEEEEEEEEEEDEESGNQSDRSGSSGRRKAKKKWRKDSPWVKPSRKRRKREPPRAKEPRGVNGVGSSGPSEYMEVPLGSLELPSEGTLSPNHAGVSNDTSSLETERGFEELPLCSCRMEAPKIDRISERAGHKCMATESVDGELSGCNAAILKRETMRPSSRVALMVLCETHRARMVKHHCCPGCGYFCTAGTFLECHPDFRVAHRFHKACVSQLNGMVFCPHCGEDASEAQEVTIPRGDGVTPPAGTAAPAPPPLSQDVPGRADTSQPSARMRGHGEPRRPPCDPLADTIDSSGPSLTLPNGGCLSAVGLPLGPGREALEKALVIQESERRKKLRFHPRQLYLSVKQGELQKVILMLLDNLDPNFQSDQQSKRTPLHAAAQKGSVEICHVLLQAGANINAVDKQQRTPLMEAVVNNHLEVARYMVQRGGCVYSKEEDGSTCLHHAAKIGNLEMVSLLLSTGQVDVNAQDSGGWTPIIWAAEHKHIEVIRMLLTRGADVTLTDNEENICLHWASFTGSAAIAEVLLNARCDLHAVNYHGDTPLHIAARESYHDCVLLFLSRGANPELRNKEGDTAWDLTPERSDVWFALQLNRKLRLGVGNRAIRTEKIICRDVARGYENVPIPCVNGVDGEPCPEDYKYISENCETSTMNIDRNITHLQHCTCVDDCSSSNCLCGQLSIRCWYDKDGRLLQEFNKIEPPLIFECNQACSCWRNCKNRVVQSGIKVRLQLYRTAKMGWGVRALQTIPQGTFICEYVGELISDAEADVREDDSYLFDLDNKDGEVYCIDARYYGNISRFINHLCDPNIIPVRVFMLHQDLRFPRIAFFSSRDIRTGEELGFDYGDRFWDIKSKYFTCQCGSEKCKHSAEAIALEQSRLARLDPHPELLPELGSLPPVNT

molecular target: T1, Snail2 (UniProt O43623); assay: co-IP; A549-Snail2 cell extracts immunoprecipitated with Snail2 antibodies; bound endogenous G9a and HDACs examined by western blotting
T1 sequence: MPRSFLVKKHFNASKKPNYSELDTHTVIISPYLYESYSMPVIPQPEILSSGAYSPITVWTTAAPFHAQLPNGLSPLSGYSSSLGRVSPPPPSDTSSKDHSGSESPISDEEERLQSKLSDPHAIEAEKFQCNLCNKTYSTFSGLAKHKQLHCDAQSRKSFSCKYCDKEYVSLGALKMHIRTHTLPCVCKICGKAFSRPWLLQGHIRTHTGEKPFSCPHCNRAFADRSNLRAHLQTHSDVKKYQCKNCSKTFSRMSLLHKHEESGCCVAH

binding, binds:
HDAC2 (from UniProt Q92769 1-488) (enzyme)
HDAC3 (from UniProt O15379 1-428) (enzyme)
HDAC1 (from UniProt Q13547 1-482) (enzyme)
G9a (from UniProt Q96KQ7 1-1210) (enzyme)
